Results are given in words; binding and its absence hold for the method and conditions named. Some results given as binding are weak or reduced against the parent protein; the word gives no strength.

This test concerns the target SP-C(Leu). Put plainly: SDS-PAGE, self-association (oligomerisation).

As to FGIPSSPVLKRLLILLLLLLLILLLILGALLMGL [SP-C(Leu)], the binding entry is given as “binds”.

The values are drawn from US7053044B1, “Artificial peptides having surface activity and the use thereof in the preparation of artificial surfactant” (Chiesi Farmaceutici S.p.A., priority 1999, dated 2006).
